Data published in article PMC3961180, “The Kil Peptide of Bacteriophage λ Blocks Escherichia coli Cytokinesis via ZipA-Dependent Inhibition of FtsZ Assembly” (PLoS Genetics, 2014).

Protein sequences, listed by entry. Tags and fused reporters are not part of them. Lines headed by an entry give the natural chain unless they say otherwise; changes in a name come on top. Residues count along the entry.
UniProt P03758: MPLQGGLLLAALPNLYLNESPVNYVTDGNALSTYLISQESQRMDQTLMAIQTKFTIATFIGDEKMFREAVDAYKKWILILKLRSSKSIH
UniProt P02769, residues 25-607: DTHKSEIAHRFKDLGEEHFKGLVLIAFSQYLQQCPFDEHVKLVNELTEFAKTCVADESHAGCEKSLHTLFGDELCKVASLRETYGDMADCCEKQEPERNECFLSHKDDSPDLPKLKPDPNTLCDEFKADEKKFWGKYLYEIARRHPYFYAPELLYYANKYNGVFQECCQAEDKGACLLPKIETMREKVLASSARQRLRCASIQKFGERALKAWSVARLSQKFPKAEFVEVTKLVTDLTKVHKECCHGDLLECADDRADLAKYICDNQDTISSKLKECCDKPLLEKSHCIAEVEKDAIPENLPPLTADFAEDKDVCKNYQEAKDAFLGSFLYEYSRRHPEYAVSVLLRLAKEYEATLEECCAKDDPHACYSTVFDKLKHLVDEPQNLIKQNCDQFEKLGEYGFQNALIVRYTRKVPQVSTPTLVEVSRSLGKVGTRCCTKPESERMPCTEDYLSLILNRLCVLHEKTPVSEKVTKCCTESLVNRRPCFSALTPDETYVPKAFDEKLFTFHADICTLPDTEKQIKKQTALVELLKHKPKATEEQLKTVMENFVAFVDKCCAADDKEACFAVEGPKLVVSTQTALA

Target: His6-FLAG-Kil (affinity-tagged Kil protein of bacteriophage λ) (bacteriophage λ) (UniProt P03758)
Experiment: pull-down; His6-FLAG-Kil (10 µM) held on α-FLAG M2 affinity resin; FtsZ 5 µM and/or His6-tagged ZipAC domains (WT and L286Q) 5 µM; 6 µM BSA in all samples; polymerization buffer (50 mM MES pH 6.5, 50 mM KCl, 2.5 mM MgCl2, 1 mM EGTA, 10% sucrose); room temperature, one to three hours; washed with 25 mL buffer; SDS-PAGE, Coomassie; both purified

Row | binding | Molecule
1 | no binding (tested: 6 µM) | Bovine serum albumin (from UniProt P02769 25-607)
2 | binds | E. coli FtsZ (natural protein, UniProt P0A9A6 1-383, looked up, cell division protein FtsZ, E. coli; expressed from pET11a-ftsZ (from H. Erickson); No tag is named for this construct; also called FtsZWT; source: E. coli BL21(DE3) pET11a-ftsZ (WM971), purified (successive 20% and 30% ammonium sulfate cuts)) MFEPMELTNDAVIKVIGVGGGGGNAVEHMVRERIEGVEFFAVNTDAQALRKTAVGQTIQIGSGITKGLGAGANPEVGRNAADEDRDALRAALEGADMVFIAAGMGGGTGTGAAPVVAEVAKDLGILTVAVVTKPFNFEGKKRMAFAEQGITELSKHVDSLITIPNDKLLKVLGRGISLLDAFGAANDVLKGAVQGIAELITRPGLMNVDFADVRTVMSEMGYAMMGSGVASGEDRAEEAAEMAISSPLLEDIDLSGARGVLVNITAGFDLRLDEFETVGNTIRAFASDNATVVIGTSLDPDMNDELRVTVVATGIGMDKRPEITLVTNKQVQQPVMDRYQQHGMAPLTQEQKPVAKVVNDNAPQTAKEPDYLDIPAFLRKQAD

These are yes or no findings as the source states them, for the method shown. Binding can be weak; no strength is given.
